# Measured values taken from publication doi:10.1101/2023.09.21.558844.
# No constants are given. Whether binding was seen depends on the method and setting. In cells and extracts the contact can be indirect. These calls come from enrichment with a bait or labelling near it, and not all partners need be listed. Sequences can lack the tags named with a protein.
# T1: Ume6 tagged at the carboxy terminus with TurboID (TurboID-3xMyc) (S. cerevisiae) (UniProt P39001)
# T1 sequence: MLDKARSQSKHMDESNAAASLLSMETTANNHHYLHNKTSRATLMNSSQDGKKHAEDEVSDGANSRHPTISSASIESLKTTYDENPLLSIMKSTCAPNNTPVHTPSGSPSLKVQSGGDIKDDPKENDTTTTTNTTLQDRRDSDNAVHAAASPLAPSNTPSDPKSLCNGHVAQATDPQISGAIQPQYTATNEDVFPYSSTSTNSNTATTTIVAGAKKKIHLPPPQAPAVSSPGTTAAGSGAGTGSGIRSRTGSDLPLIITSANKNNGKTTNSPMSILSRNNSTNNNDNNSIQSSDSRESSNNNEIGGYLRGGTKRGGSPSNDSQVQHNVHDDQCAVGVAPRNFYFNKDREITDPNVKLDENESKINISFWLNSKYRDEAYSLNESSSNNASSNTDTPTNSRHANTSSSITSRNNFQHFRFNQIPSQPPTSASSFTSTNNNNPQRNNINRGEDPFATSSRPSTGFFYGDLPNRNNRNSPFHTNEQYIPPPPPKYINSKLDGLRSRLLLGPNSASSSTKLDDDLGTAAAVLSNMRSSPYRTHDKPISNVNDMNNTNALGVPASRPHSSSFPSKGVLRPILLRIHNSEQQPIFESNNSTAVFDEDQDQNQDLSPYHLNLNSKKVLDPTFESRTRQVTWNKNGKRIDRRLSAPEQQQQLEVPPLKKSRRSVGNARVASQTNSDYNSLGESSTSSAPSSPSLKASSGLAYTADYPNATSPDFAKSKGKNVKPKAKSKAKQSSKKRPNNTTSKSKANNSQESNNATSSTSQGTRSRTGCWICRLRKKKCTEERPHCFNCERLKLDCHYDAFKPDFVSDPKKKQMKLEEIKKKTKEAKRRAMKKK
# Biological target: T1, Ume6 tagged at the carboxy terminus with TurboID (TurboID-3xMyc) (S. cerevisiae)
# Assay: proximity labelling
row,Binder,binding
1,"Cti6 (protein, UniProt Q08923 1-506) MESTAIVPKGPVVGSEDMEKAEVIASGSTDIISTTSTATTTAAIGSVQEESVKQEDVPMEGGEGEVEEEEGETRCICGELDTPDDSGFFIQCEQCSSWQHGYCVSITQDNAPDKYWCEQCRPELHQLFTTDTGEARSIYKPVQEKRRQSRRKARSAAASKSHAANEAEKSPRNTSNTDDNVDDIGDEEDEVEDEASAVALAKDGNTRSSRRRRRNSMDDASTDQYSLDPGDSDKKLLDRKRATFMAREEKQYQRMLEKALKESRRTSHQEDPESYENDADIYQGDTDNHNGTTRLQTDVMLTEGKPDSVTNDDMKESLRPSKEQSMEKTNDVEKEASQEKESSTGSAQDTEKTDEPILPLTSISSSEDDSRKASSRGSKRVSKPARKGNRTRRSNTSSDTNQNRRSADIGTDKPVKPRLPPQRTSLNEMRRRVSAILEFISRTQWELSEDQSDREEFVRFVENQHFVEKVDTIYNGYNESLSMMDDLTRELLLWEKKYSNNTNAIQ",binds
2,"Spt6 (protein, UniProt P23615 1-1451) MEETGDSKLVPRDEEEIVNDNDETKAPSEEEEGEDVFDSSEEDEDIDEDEDEARKVQEGFIVNDDDENEDPGTSISKKRRKHKRREREEDDRLSEDDLDLLMENAGVERTKASSSSGKFKRLKRVGDEGNAAESESDNVAASRQDSTSKLEDFFSEDEEEEESGLRNGRNNEYGRDEEDHENRNRTADKGGILDELDDFIEDDEFSDEDDETRQRRIQEKKLLREQSIKQPTQITGLSSDKIDEMYDIFGDGHDYDWALEIENEELENGNDNNEAEEEEIDEETGAIKSTKKKISLQDIYDLEDLKKNLMTEGDMKIRKTDIPERYQELRAGITDYGNMSSEDQELERNWIAEKISVDKNFDANYDLTEFKEAIGNAIKFITKENLEVPFIYAYRRNYISSREKDGFLLTEDDLWDIVSLDIEFHSLVNKKDYVQRFYAELHIDDPIVTEYFKNQNTASIAELNSLQDIYDYLEFKYANEINEMFINHTGKTGKKHLKNSSYEKFKASPLYQAVSDIGISAEDVGENISSQHQIHPPVDHPSSKPVEVIESILNANSGDLQVFTSNTKLAIDTVQKYYSLELSKNTKIREKVRSDFSKYYLADVVLTAKGKKEIQKGSLYEDIKYAINRTPMHFRRDPDVFLKMVEAESLNLLSVKLHMSSQAQYIEHLFQIALETTNTSDIAIEWNNFRKLAFNQAMDKIFQDISQEVKDNLTKNCQKLVAKTVRHKFMTKLDQAPFIPNVRDPKIPKILSLTCGQGRFGADAIIAVYVNRKGDFIRDYKIVDNPFDKTNPEKFEDTLDNIIQSCQPNAIGINGPNPKTQKFYKRLQEVLHKKQIVDSRGHTIPIIYVEDEVAIRYQNSERAAQEFPNKPPLVKYCIALARYMHSPLLEYANLTSEEVRSLSIHPHQNLLSSEQLSWALETAFVDIVNLVSVEVNKATDNNYYASALKYISGFGKRKAIDFLQSLQRLNEPLLARQQLITHNILHKTIFMNSAGFLYISWNEKRQKYEDLEHDQLDSTRIHPEDYHLATKVAADALEYDPDTIAEKEEQGTMSEFIELLREDPDRRAKLESLNLESYAEELEKNTGLRKLNNLNTIVLELLDGFEELRNDFHPLQGDEIFQSLTGESEKTFFKGSIIPVRVERFWHNDIICTTNSEVECVVNAQRHAGAQLRRPANEIYEIGKTYPAKVIYIDYANITAEVSLLDHDVKQQYVPISYSKDPSIWDLKQELEDAEEERKLMMAEARAKRTHRVINHPYYFPFNGRQAEDYLRSKERGEFVIRQSSRGDDHLVITWKLDKDLFQHIDIQELEKENPLALGKVLIVDNQKYNDLDQIIVEYLQNKVRLLNEMTSSEKFKSGTKKDVVKFIEDYSRVNPNKSVYYFSLNHDNPGWFYLMFKINANSKLYTWNVKLTNTGYFLVNYNYPSVIQLCNGFKTLLKSNSSKNRMNNYR",binds
3,"Stb3 (protein, UniProt Q12427 1-513) MSENQKEVSPPQAISVKSEASSSIFSKPISTSSPAGLAAAQRVTPGKLSTLLLEMGPLAIRHITQTLCLDIPCFKDLSSSKQRRLIMSAMESGDKEKSVVFEKIGWGQWSAKRVDPANFDKELEATNFANAKVKDLISQESQRRKSNNSNSNSGGKVEMPMKVEHNITNIDGATTPPTAVASTTIPVNIKRSKSPLAAANVVYIDENALASEDEDEEFDEDDHHLHYQNKSRNSSNNFGKSSNGDPYSFGRRRSQVVFADSTPENIEHEIIAQKIRPLLRNRRRSSIKPHTPFISKLNTHQDSSYLSPNTTSTTTPSNNNSNSNQAKIDLEKLTATSEPTSRRASRLSVSKESSIRSTLFPNKNYLIVTTNPNSKATSVSTSPKLEEQMNVSSNPIVLSDKEKHRVASQHLNGESSPQLVPHSHHQPHSDTDEEDWESIGAASLRNNSLAPNIDSVASSTNGVVSPKPTNPSFTNSQNGDIEPPLQHDQQKHEQQPRNGEDNSAAFLLMSLKS",binds
4,"Rxt2 (protein, UniProt P38255 1-430) MTIRSSMKNNAELESKSVLANESNIISTFTRRIIKEKSGNYQVLKRSLDGKLIYPEATGISSNRGNKLLQRSEVVTRRDLNNSKPMIEQTVFYNGSEHRLLQTNIVTDSRRKRIKFTPDINVEPVLVGDENDIDGSEKEDENITDEYYGEEDDDDLSKLVNVKEILTPILSLGDIINHKTISRTFSSPILKNLALQIILMIEKEQMSVVRYSQFLEVFLGDHPEPIYESNLNLPSYNHNLTLPEDRGASDEDDINNKNNINEVNSNSLSTEAGHINNGMEEFGEEDPFFALPRLEQSNALLSLLPSSSGSASISTLTAAEQQQLNEEIESARQLSQIALQRNKEFIRNLQKIRKSVIKANRIRGRILNWSREYLGISDDDITIPVALRVVKRGLISATTNKTTNFEEEIENTMEDGVVDDNEPDEEANRA",binds
5,"Dep1 (protein, UniProt P31385 1-405) MSQQTPQESEQTTAKEQDLDQESVLSNIDFNTDLNHNLNLSEYCISSDAGTEKMDSDEEKSLANLPELKYAPKLSSLVKQETLTESLKRPHEDEKEAIDEAKKMKVPGENEDESKEEEKSQELEEAIDSKEKSTDARDEQGDEGDNEEENNEEDNENENEHTAPPALVMPSPIEMEEQRMTALKEITDIEYKFAQLRQKLYDNQLVRLQTELQMCLEGSHPELQVYYSKIAAIRDYKLHRAYQRQKYELSCINTETIATRTFIHQDFHKKVTDLRARLLNRTTQTWYDINKERRDMDIVIPDVNYHVPIKLDNKTLSCITGYASAAQLCYPGEPVAEDLACESIEYRYRANPVDKLEVIVDRMRLNNEISDLEGLRKYFHSFPGAPELNPLRDSEINDDFHQWAQ",binds

# Continued, values first:
row,binding,Binder
1,binds,"Tod6 (protein, UniProt P34219 1-525) MTLPKLSSVSVSSGHVSANSHGFSILSKHPHPNNLVHSHSLSHTNAKSHLPISSTSTKENSTNKEEAESLKKNNPSSWDPSDDIKLRHLKEIKNLGWKEIAHHFPNRTPNACQFRWRRLKSGNLKSNKTAVIDINKLFGVYATGDATPSAGTPSAEEAVKEEAVEDEDITAGSSAIEDSPPDFKPLVKPKYMDRKLITQRSTSTFSDHEPQHTKPRKLFVKPRSFSHSITTNTPNVKTAQQTNLSLYNTTSAKTNKAVNSNDYENIGLVPKIIIRSRRNSFIPSTQIPHSTTKTRKNSHSVISSRRSSFNMMHSRRSSFNSHAPTEPISRRASLVVSPYMSPRRLSTSQSVHYHPQHQYYLNPIASPNCKTDHANDKITHTRTFLDMQKFANKHPWSREDDEVLLNNTKDKQNHLSPLEISIVLPNNRSELEIQQRMDYLKRKGRVSGFHTNEGCKDEEEEDDIDPLHKENGINTPSQQSQNYGMLEAKHDNPKSSELSSMTSANDIRNEQDELPGINSIFKNIF"
2,binds,"Tea1, Ty1 enhancer activator I (protein, UniProt P47988 1-759) MTAPLWPNKNEKNHTVKRALSTDMTSNILSSTNASSNEENSRSSSAANVRSGTGANTLTNGGSTRKRLACTNCRNRRKKCDLGFPCGNCSRLELVCNVNDEDLRKKRYTNKYVKSLESHIAQLETNLKNLVQKIYPDDEQILNRMMVGDVLSALPDSSQVSINYTDQTPSLPIPATRGTFIIENDKVSQPLSSFNQQTEPSTLNSGIFNTQKQNFEESLDDQLLLRRSLTPQGEKKKKPLVKGSLYPEGPVSYKRKHPVKSDSLLPVSSLTAATDPSTFSDGITAGNSVLVNGELKKRISDLKTTVIVRGLNDDNPNSINNDPRILKSLSNFYKWLYPGYFIFVHRESFLYGFFNHSKNNYEDSSYCSVELIYAMCAVGSRLTPDLQEYSEVYYQRSKKTLLQLVFDEQSTARITTVQALFCLAFYELGKGNNQLGWYFSGLAIRVGYDMGFQLDPKVWYVDDNNLQLTQSELEIRSRIYWGCYIADHFICLMLGRTSTLSVSNSTMPESDELPEVNGTEEFRFIGRHVLQISLPLKNLIILSRLVQIFTSKIFIESEDIARKLKYLNTFNSQVYNWRQSLPEFLQWSKTLIENDDVSTDPTISYFWYCYYIVRLTFNKPFIEDSQESETVVIEIIDDLKTLLDNFGKKFGNYTKGNLYQLYSCLLAINCLKKLKEIRSSEQDSWNAQLDFFNHIFYTQLYPAYDLPKKLQEDTELETEQENQMLNQVGNINYTHDFSLSHEIDDLIRELFGVGTPQKL"
